Reference: PubChem BioAssay AID1224828 (NIAID, 2016)
Screen: 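Regulators linking TLR4 signalling to p65 nuclear translocation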 (primary screen). Cell system: mouse RAW264.7 G9 macrophage reporter cells (GFP-p65, Tnf promoter-mCherry). Knock-down reagent: siRNA pool against mouse genes, 100 nM. Time to read-out: 2 days siRNA transfection, then 40 min LPS before fixation. Challenge: LPS (Salmonella minnesota R595) at 10 ng/ml. Measured: 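Imaged p65 nuclear translocation ratio, normalised to the plate median, converted to robust z-scores and averaged across two replicates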. Reading the numbers: p65 translocation robust z-score: higher = more nuclear NF-kappaB p65 after LPS than the plate median; nuclear/cytoplasmic p65 ratio: higher = more nuclear NF-kappaB p65. Hit rule: 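Active if robust z is above 3.3 (negative regulators) or below -1.56, the Tlr4 control median (positive regulators); activity score 50 or more; control wells not called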. Calls: active = hit (p65 shift raised or lowered); inactive = no clear change.
Shown is one part, drawn at random, of about 17,000 reagents. 762 of them (4.5%) were called active. 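Active calls include both raised and lowered p65 entry, mostly lowered; wells with fewer than 50 cells lack a z-score.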 The raw values are shown without normalisation.

For Epb41l1 (GeneID 13821), the values are p65 translocation robust z-score 0.22; nuclear/cytoplasmic p65 ratio, rep 1 = 1.53; nuclear/cytoplasmic p65 ratio, rep 2 = 1.58; low cell count flag enough cells to score; inactive.
Ube2e1 (GeneID 22194) showed p65 translocation robust z-score 0.7; nuclear/cytoplasmic p65 ratio, rep 1 = 1.63; nuclear/cytoplasmic p65 ratio, rep 2 = 1.58; low cell count flag enough cells to score; inactive.
Depletion of Abca5 (GeneID 217265) gave: p65 translocation robust z-score 0.13; nuclear/cytoplasmic p65 ratio, rep 1 = 1.56; nuclear/cytoplasmic p65 ratio, rep 2 = 1.77; low cell count flag enough cells to score; inactive.
Knock-down of Rps13 (GeneID 68052) resulted in: p65 translocation robust z-score -1.08; nuclear/cytoplasmic p65 ratio, rep 1 = 1.19; nuclear/cytoplasmic p65 ratio, rep 2 = 1.1; low cell count flag enough cells to score; inactive.
After knock-down of Cep170 (GeneID 545389) the results were p65 translocation robust z-score 0.33; nuclear/cytoplasmic p65 ratio, rep 1 = 1.66; nuclear/cytoplasmic p65 ratio, rep 2 = 1.67; low cell count flag enough cells to score; inactive.
After knock-down of Sowahd (GeneID 245381) the results were p65 translocation robust z-score 0.43; nuclear/cytoplasmic p65 ratio, rep 1 = 1.45; nuclear/cytoplasmic p65 ratio, rep 2 = 1.58; low cell count flag enough cells to score; inactive.
Knock-down of Adss1 (GeneID 11565) gave: p65 translocation robust z-score -1.54; nuclear/cytoplasmic p65 ratio, rep 1 = 1.29; nuclear/cytoplasmic p65 ratio, rep 2 = 1.53; low cell count flag enough cells to score; inactive.
For Klra22 (GeneID 93969), the entry reads p65 translocation robust z-score -1.76; nuclear/cytoplasmic p65 ratio, rep 1 = 1.2; nuclear/cytoplasmic p65 ratio, rep 2 = 1.19; low cell count flag enough cells to score; active.
Caskin2 (GeneID 140721) scored p65 translocation robust z-score -2.65; nuclear/cytoplasmic p65 ratio, rep 1 = 1.25; nuclear/cytoplasmic p65 ratio, rep 2 = 1.29; low cell count flag enough cells to score; active.
Ear6 (GeneID 93719) gave nuclear/cytoplasmic p65 ratio, rep 1 = 1.23; nuclear/cytoplasmic p65 ratio, rep 2 = 1.21; low cell count flag fewer than 50 cells per well; well left out of scoring; inactive.
Hk2 (GeneID 15277) showed p65 translocation robust z-score -0.44; nuclear/cytoplasmic p65 ratio, rep 1 = 1.7; nuclear/cytoplasmic p65 ratio, rep 2 = 1.32; low cell count flag enough cells to score; inactive.
For Zp3 (GeneID 22788), the entry reads p65 translocation robust z-score -0.09; nuclear/cytoplasmic p65 ratio, rep 1 = 1.58; nuclear/cytoplasmic p65 ratio, rep 2 = 1.51; low cell count flag enough cells to score; inactive.
Depletion of Olfr257 (GeneID 404314) gave: nuclear/cytoplasmic p65 ratio, rep 1 = 1.31; nuclear/cytoplasmic p65 ratio, rep 2 = 1.21; low cell count flag fewer than 50 cells per well; well left out of scoring; inactive.
Il23a (GeneID 83430) showed nuclear/cytoplasmic p65 ratio, rep 1 = 1.3; nuclear/cytoplasmic p65 ratio, rep 2 = 1.31; low cell count flag fewer than 50 cells per well; well left out of scoring; inactive.
Nhlh1 (GeneID 18071) gave p65 translocation robust z-score -1.35; nuclear/cytoplasmic p65 ratio, rep 1 = 1.25; nuclear/cytoplasmic p65 ratio, rep 2 = 1.25; low cell count flag enough cells to score; inactive.
Knock-down of Tbc1d10c (GeneID 108995) resulted in: p65 translocation robust z-score 1.41; nuclear/cytoplasmic p65 ratio, rep 1 = 1.54; nuclear/cytoplasmic p65 ratio, rep 2 = 1.04; low cell count flag enough cells to score; inactive.
With knock-down of Zfp696 (GeneID 100043133) the results were p65 translocation robust z-score -0.07; nuclear/cytoplasmic p65 ratio, rep 1 = 1.42; nuclear/cytoplasmic p65 ratio, rep 2 = 1.53; low cell count flag enough cells to score; inactive.
Tlr3 (GeneID 142980) scored nuclear/cytoplasmic p65 ratio, rep 1 = 1.52; nuclear/cytoplasmic p65 ratio, rep 2 = 1.43; low cell count flag fewer than 50 cells per well; well left out of scoring; inactive.
Or8b9 (GeneID 258412) showed p65 translocation robust z-score 0.15; nuclear/cytoplasmic p65 ratio, rep 1 = 1.53; nuclear/cytoplasmic p65 ratio, rep 2 = 1.23; low cell count flag enough cells to score; inactive.
Silencing of Hnf4a (GeneID 15378) gave: p65 translocation robust z-score 1.03; nuclear/cytoplasmic p65 ratio, rep 1 = 1.65; nuclear/cytoplasmic p65 ratio, rep 2 = 1.44; low cell count flag enough cells to score; inactive.
Depletion of Mppe1 (GeneID 225651) resulted in: p65 translocation robust z-score 2.26; nuclear/cytoplasmic p65 ratio, rep 1 = 2.13; nuclear/cytoplasmic p65 ratio, rep 2 = 1.95; low cell count flag enough cells to score; inactive.
